From PMC12181301
No constants are given. Whether binding was seen depends on the method and setting. In cells and extracts the contact can be indirect. A yes stands for co-enrichment or nearness to the bait. Other partners may have been found.

Chains of the proteins cited; added tags and fusions are not shown.
UniProt P02340: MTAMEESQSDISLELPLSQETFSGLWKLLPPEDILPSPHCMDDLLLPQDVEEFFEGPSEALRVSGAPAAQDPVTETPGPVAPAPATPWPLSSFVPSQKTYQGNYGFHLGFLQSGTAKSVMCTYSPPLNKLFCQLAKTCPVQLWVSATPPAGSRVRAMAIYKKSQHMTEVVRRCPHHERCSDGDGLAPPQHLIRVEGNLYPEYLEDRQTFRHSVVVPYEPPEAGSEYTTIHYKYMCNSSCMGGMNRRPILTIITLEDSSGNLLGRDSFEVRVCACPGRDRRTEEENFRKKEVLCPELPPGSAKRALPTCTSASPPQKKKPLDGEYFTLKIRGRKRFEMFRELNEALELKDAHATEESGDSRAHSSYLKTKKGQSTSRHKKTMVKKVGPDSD

Target: T1, Iron-Sulfur Cluster Assembly Enzyme (ISCU) (mouse (endogenous in RAW264.7 or BMDM)) (UniProt Q9D7P6)
T1 sequence: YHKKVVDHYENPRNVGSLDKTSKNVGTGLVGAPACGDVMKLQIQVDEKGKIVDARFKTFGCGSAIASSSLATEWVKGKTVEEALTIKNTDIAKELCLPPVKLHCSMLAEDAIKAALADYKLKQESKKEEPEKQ
Experiment: affinity purification with mass spectrometry; lysates of M0 and M2 macrophages incubated with anti-ISCU antibody, then protein A/G agarose for 4 h; bound proteins eluted and identified by mass spectrometry

## p53 protein (from UniProt P02340 1-390)
  binding: binds
